# Assay results: the supplement of paper PMC11438910
# Some of the results follow. Only a few entries rise above the background.
# B1: 4-99.4 (protein)
# chain 1: QVQLQESGPGLVKPSETLSLTCAVSGYSISSAYFWGWIRQPPGKGLEYIGYISGEGGKSYYNPSLMSRVTISKDTSKNQFSLKLNTVTAADTAVYYCARRAILVGFDLWGQGVLVTVSS
# chain 2: QAAPTQPPSVSGSPGQSVTISCTGSNSDIGYYNAVSWYQQHPGKAPKLMIYEVSKRPSGVSDRLTGSKSGNTASLTISGLQAEDEADYYCSSYAGSNTYIFGTGTRLTVL
# Assays:
# Experiment in all cases: fluorescence intensity of antibody binding to polysaccharide-coupled beads; higher = stronger binding
# [1] = molecular target: pneumococcal polysaccharide Pn15B
# Protocol: (§1)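 Recombinant rhesus-murine chimeric IgG1 antibodies were tested against antigen-coupled MagPlex beads in a 96-plex Luminex direct immunoassay (dLIA). The beads carried pneumococcal capsular polysaccharides of 93 serotypes plus C-polysaccharides. Antibody was added at 0.1–12,500 ng/mL for 1 h, then PE anti-mouse IgG, and net MFI was read on a Bio-Plex 3D. Only the rhesus variable regions are printed; constant regions are murine IgG1/kappa/lambda, and the signal peptide is MGWSCIILFLVATATGVHS.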
# [2] = molecular target: pneumococcal polysaccharide Pn15C
# Protocol: as §1
# [3] = molecular target: pneumococcal polysaccharide Pn15F
# Protocol: as §1
# [4] = molecular target: pneumococcal polysaccharide Pn16A
# Protocol: as §1
# [5] = molecular target: pneumococcal polysaccharide Pn16F
# Protocol: as §1
# [6] = molecular target: pneumococcal polysaccharide Pn17A
# Protocol: as §1
# [7] = molecular target: pneumococcal polysaccharide Pn17F
# Protocol: as §1
# [8] = molecular target: pneumococcal polysaccharide Pn18A
# Protocol: as §1
# [9] = molecular target: pneumococcal polysaccharide Pn18B
# Protocol: as §1
# [10] = molecular target: pneumococcal polysaccharide Pn18C
# Protocol: as §1
# [11] = molecular target: pneumococcal polysaccharide Pn18F
# Protocol: as §1
# [12] = molecular target: pneumococcal polysaccharide Pn19A
# Protocol: as §1
# [13] = antibody concentration 2337.65 ng/mL
# [14] = antibody concentration 12500 ng/mL
# [15] = antibody concentration 0.1 ng/mL
# [16] = antibody concentration 0.534724 ng/mL
# [17] = antibody concentration 2.8593 ng/mL
# [18] = antibody concentration 15.2894 ng/mL
# [19] = antibody concentration 81.7561 ng/mL
# [20] = antibody concentration 437.17 ng/mL
binder,measurement,setting,value
B1,fluorescence intensity,[1]; [13],23 MFI
same,fluorescence intensity,[1]; [14],35 MFI
same,fluorescence intensity,[2]; [15],18.2 MFI
same,fluorescence intensity,[2]; [16],16.8 MFI
same,fluorescence intensity,[2]; [17],19 MFI
same,fluorescence intensity,[2]; [18],19 MFI
same,fluorescence intensity,[2]; [19],17.8 MFI
same,fluorescence intensity,[2]; [20],16 MFI
same,fluorescence intensity,[2]; [13],20.5 MFI
same,fluorescence intensity,[2]; [14],22 MFI
same,fluorescence intensity,[3]; [15],18.2 MFI
same,fluorescence intensity,[3]; [16],17 MFI
same,fluorescence intensity,[3]; [17],17 MFI
same,fluorescence intensity,[3]; [18],19 MFI
same,fluorescence intensity,[3]; [19],17.5 MFI
same,fluorescence intensity,[3]; [20],17.5 MFI
same,fluorescence intensity,[3]; [13],20.2 MFI
same,fluorescence intensity,[3]; [14],27.5 MFI
same,fluorescence intensity,[4]; [15],16 MFI
same,fluorescence intensity,[4]; [16],14 MFI
same,fluorescence intensity,[4]; [17],14.5 MFI
same,fluorescence intensity,[4]; [18],14 MFI
same,fluorescence intensity,[4]; [19],14 MFI
same,fluorescence intensity,[4]; [20],14.5 MFI
same,fluorescence intensity,[4]; [13],17.2 MFI
same,fluorescence intensity,[4]; [14],20.5 MFI
same,fluorescence intensity,[5]; [15],25.2 MFI
same,fluorescence intensity,[5]; [16],25.5 MFI
same,fluorescence intensity,[5]; [17],24.5 MFI
same,fluorescence intensity,[5]; [18],23.2 MFI
same,fluorescence intensity,[5]; [19],23.8 MFI
same,fluorescence intensity,[5]; [20],26 MFI
same,fluorescence intensity,[5]; [13],28.2 MFI
same,fluorescence intensity,[5]; [14],37.5 MFI
same,fluorescence intensity,[6]; [15],21 MFI
same,fluorescence intensity,[6]; [16],21.5 MFI
same,fluorescence intensity,[6]; [17],20.5 MFI
same,fluorescence intensity,[6]; [18],20.8 MFI
same,fluorescence intensity,[6]; [19],21 MFI
same,fluorescence intensity,[6]; [20],20.5 MFI
same,fluorescence intensity,[6]; [13],22.5 MFI
same,fluorescence intensity,[6]; [14],24.2 MFI
same,fluorescence intensity,[7]; [15],24.5 MFI
same,fluorescence intensity,[7]; [16],28 MFI
same,fluorescence intensity,[7]; [17],25 MFI
same,fluorescence intensity,[7]; [18],25.5 MFI
same,fluorescence intensity,[7]; [19],26.5 MFI
same,fluorescence intensity,[7]; [20],27.8 MFI
same,fluorescence intensity,[7]; [13],29 MFI
same,fluorescence intensity,[7]; [14],30 MFI
same,fluorescence intensity,[8]; [15],24.5 MFI
same,fluorescence intensity,[8]; [16],25 MFI
same,fluorescence intensity,[8]; [17],23.5 MFI
same,fluorescence intensity,[8]; [18],23.5 MFI
same,fluorescence intensity,[8]; [19],24 MFI
same,fluorescence intensity,[8]; [20],24.5 MFI
same,fluorescence intensity,[8]; [13],25 MFI
same,fluorescence intensity,[8]; [14],29.8 MFI
same,fluorescence intensity,[9]; [15],31.2 MFI
same,fluorescence intensity,[9]; [16],31.5 MFI
same,fluorescence intensity,[9]; [17],31.5 MFI
same,fluorescence intensity,[9]; [18],30 MFI
same,fluorescence intensity,[9]; [19],30.5 MFI
same,fluorescence intensity,[9]; [20],33 MFI
same,fluorescence intensity,[9]; [13],35 MFI
same,fluorescence intensity,[9]; [14],45.2 MFI
same,fluorescence intensity,[10]; [15],19.5 MFI
same,fluorescence intensity,[10]; [16],19.5 MFI
same,fluorescence intensity,[10]; [17],19 MFI
same,fluorescence intensity,[10]; [18],20.5 MFI
same,fluorescence intensity,[10]; [19],19.2 MFI
same,fluorescence intensity,[10]; [20],20.5 MFI
same,fluorescence intensity,[10]; [13],20.8 MFI
same,fluorescence intensity,[10]; [14],39.5 MFI
same,fluorescence intensity,[11]; [15],23.2 MFI
same,fluorescence intensity,[11]; [16],23 MFI
same,fluorescence intensity,[11]; [17],23 MFI
same,fluorescence intensity,[11]; [18],24.5 MFI
same,fluorescence intensity,[11]; [19],24.5 MFI
same,fluorescence intensity,[11]; [20],25.5 MFI
same,fluorescence intensity,[11]; [13],28.5 MFI
same,fluorescence intensity,[11]; [14],40.5 MFI
same,fluorescence intensity,[12]; [15],18 MFI
same,fluorescence intensity,[12]; [16],20 MFI
same,fluorescence intensity,[12]; [17],20 MFI
same,fluorescence intensity,[12]; [18],19.5 MFI
same,fluorescence intensity,[12]; [19],18.5 MFI
same,fluorescence intensity,[12]; [20],18.5 MFI
same,fluorescence intensity,[12]; [13],19.5 MFI
same,fluorescence intensity,[12]; [14],29.5 MFI

# Three entries from above in a different format.
binder	measurement	setting	value
B1	fluorescence intensity	[6]; [18]	20.8 MFI
same	fluorescence intensity	[6]; [19]	21 MFI
same	fluorescence intensity	[6]; [20]	20.5 MFI

# Two entries drawn at random from the list so far:
binder,measurement,setting,value
B1,fluorescence intensity,[4]; [15],16 MFI
same,fluorescence intensity,[10]; [20],20.5 MFI
